Results: the supplement of paper PMC6411743
± gives the standard deviation of the averaged measurements. The list shows a part of the results, in another mix than the full data. Most values lie at the level of the controls, where differences are scatter.

The chains behind the UniProt entries cited, without tags or fusion partners. Where a name states a change or a piece, a line headed by the entry shows the natural chain unless it says otherwise.
UniProt O43920, whole entry: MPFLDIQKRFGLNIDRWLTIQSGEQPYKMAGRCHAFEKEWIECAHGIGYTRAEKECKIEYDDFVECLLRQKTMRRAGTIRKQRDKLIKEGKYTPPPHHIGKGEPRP
UniProt O00233: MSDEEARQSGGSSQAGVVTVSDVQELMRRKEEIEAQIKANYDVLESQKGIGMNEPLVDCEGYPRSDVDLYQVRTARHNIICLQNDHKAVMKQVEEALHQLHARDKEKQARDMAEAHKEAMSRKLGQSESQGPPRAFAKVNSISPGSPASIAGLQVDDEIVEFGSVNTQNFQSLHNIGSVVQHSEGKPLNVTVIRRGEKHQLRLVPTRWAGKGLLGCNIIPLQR
UniProt O15040: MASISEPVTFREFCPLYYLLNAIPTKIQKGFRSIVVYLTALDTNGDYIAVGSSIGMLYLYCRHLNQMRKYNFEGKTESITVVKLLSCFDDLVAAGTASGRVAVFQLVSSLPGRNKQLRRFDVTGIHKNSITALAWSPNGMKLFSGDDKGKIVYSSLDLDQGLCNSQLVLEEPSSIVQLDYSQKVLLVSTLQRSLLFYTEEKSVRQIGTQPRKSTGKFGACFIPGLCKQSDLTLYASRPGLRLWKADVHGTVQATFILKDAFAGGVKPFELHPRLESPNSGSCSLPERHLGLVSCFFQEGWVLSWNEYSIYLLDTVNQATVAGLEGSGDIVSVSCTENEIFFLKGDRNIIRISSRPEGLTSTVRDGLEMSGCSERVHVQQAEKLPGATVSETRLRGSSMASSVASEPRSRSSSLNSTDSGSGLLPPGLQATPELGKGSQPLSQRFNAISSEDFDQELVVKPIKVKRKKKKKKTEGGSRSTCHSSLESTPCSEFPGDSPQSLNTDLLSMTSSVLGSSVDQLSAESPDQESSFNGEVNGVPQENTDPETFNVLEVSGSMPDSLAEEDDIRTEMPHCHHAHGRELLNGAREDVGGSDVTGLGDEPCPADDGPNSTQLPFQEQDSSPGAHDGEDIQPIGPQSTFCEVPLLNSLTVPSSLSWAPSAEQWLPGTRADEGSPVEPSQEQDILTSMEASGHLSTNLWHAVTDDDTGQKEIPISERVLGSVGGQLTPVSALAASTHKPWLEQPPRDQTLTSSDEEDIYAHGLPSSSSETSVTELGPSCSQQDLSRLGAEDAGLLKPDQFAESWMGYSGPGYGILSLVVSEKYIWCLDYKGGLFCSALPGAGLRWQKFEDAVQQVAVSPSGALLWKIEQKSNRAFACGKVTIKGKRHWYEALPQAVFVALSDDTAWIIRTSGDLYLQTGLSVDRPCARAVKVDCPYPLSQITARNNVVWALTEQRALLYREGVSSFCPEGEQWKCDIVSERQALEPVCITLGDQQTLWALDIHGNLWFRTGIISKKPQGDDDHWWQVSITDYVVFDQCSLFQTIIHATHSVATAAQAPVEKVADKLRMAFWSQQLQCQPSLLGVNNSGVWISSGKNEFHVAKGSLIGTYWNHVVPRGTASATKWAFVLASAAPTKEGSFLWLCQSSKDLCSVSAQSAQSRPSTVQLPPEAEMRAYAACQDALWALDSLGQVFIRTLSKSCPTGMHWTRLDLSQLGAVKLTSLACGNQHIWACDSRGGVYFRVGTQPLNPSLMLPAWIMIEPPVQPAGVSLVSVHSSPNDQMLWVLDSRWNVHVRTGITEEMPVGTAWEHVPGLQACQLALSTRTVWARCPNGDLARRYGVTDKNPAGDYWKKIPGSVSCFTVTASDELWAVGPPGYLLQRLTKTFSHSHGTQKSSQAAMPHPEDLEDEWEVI
UniProt O14545: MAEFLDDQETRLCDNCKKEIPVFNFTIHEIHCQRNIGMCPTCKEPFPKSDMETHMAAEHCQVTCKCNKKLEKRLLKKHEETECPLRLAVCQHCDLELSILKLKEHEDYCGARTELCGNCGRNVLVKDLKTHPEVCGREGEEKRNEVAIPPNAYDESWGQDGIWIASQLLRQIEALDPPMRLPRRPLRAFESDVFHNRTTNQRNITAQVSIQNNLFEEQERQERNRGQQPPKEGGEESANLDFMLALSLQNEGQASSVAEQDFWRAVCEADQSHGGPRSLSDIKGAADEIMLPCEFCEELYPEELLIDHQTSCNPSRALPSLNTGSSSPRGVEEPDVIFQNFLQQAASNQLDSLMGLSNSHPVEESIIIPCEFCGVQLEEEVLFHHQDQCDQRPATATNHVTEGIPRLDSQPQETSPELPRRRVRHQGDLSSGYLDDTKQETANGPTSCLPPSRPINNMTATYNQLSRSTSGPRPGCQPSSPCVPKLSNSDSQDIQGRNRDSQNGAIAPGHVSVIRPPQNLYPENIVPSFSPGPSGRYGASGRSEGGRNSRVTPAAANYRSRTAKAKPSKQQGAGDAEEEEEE
UniProt O00743: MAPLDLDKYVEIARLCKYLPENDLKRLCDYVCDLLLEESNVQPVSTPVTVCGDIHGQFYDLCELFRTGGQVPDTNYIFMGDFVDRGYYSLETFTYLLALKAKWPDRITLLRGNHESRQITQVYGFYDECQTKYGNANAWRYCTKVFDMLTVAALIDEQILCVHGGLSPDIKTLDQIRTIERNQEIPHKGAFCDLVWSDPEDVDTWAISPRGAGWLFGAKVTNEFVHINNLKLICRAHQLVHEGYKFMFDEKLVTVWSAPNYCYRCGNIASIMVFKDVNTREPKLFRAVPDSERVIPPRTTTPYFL
UniProt O43663: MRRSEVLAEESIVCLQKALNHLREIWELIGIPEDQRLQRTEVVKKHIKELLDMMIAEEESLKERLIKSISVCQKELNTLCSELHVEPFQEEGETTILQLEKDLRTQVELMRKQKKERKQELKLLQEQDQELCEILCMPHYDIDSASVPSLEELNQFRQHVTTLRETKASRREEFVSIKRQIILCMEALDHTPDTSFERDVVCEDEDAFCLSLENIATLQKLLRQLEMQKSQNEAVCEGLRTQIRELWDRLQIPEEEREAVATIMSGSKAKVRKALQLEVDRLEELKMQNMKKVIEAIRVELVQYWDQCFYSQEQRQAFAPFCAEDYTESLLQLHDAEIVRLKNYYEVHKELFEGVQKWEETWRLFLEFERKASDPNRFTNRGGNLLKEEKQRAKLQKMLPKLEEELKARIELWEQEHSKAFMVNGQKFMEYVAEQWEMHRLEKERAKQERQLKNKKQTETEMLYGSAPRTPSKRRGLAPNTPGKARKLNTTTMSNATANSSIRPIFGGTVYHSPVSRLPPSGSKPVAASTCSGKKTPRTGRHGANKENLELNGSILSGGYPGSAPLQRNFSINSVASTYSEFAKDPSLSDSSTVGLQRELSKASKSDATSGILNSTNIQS
UniProt O43736: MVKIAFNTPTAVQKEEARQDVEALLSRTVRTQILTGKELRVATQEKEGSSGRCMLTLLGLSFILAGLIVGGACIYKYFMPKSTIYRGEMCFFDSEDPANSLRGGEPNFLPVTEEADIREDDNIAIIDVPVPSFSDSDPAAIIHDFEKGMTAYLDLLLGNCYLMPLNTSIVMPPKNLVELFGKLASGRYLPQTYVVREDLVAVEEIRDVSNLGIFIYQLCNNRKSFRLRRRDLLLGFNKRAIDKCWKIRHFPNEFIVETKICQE
UniProt O14976: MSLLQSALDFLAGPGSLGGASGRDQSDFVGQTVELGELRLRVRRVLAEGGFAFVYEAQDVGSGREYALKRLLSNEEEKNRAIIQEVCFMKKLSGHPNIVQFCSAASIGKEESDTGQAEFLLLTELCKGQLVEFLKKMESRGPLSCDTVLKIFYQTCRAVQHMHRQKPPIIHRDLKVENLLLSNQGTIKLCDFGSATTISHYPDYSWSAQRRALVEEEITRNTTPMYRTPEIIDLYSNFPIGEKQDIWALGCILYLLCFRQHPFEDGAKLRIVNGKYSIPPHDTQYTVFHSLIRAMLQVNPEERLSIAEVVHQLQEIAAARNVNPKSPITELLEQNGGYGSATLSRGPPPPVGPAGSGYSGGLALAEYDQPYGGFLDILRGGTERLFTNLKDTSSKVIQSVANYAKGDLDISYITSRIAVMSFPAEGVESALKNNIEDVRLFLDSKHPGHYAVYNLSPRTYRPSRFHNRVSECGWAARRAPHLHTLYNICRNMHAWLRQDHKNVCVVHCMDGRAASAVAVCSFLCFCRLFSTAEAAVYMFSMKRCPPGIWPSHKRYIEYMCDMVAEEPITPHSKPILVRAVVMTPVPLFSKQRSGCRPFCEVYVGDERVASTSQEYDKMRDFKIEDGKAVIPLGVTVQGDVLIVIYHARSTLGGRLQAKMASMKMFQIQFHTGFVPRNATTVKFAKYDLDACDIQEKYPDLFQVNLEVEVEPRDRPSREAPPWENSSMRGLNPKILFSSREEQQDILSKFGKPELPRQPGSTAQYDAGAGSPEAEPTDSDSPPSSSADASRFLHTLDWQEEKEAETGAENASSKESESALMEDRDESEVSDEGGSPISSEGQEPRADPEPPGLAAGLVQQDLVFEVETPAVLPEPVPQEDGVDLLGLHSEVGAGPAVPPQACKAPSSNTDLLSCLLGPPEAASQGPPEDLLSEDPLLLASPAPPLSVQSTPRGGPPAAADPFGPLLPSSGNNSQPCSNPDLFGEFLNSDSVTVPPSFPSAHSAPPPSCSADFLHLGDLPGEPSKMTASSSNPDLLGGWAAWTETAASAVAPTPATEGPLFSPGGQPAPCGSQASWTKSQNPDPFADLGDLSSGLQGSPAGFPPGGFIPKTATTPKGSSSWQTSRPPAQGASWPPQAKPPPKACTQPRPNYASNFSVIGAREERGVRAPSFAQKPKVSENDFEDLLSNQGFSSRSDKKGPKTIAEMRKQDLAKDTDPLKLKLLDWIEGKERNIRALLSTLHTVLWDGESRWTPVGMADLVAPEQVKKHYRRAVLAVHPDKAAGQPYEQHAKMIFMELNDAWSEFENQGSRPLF
UniProt O00203: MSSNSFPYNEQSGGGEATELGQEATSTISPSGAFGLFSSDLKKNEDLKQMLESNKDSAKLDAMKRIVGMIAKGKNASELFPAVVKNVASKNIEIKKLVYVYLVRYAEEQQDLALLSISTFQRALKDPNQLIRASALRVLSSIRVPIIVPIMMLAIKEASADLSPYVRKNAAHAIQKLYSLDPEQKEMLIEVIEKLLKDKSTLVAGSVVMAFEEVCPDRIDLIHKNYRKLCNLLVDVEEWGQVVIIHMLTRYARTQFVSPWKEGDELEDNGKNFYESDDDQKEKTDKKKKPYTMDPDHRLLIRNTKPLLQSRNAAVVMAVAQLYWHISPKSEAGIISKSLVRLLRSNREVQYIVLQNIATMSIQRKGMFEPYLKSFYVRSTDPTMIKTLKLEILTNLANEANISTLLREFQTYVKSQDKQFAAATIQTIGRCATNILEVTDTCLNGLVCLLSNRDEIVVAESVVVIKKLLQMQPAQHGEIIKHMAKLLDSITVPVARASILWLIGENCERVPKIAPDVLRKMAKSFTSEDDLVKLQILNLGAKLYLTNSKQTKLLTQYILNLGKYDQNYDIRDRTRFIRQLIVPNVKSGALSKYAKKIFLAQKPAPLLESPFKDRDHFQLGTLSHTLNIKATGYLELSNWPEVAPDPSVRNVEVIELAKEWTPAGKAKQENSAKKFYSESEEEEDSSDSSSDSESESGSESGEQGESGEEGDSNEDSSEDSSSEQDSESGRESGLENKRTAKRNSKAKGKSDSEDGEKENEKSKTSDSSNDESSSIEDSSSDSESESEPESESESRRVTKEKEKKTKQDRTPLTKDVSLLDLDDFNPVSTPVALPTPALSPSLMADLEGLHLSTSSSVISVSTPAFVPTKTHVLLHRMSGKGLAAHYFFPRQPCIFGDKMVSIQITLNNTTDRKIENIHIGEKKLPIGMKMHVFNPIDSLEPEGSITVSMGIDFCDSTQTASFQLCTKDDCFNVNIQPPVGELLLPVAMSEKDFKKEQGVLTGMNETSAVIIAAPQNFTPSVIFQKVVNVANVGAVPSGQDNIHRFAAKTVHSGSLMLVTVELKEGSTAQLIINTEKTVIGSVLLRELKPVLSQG
UniProt O43390: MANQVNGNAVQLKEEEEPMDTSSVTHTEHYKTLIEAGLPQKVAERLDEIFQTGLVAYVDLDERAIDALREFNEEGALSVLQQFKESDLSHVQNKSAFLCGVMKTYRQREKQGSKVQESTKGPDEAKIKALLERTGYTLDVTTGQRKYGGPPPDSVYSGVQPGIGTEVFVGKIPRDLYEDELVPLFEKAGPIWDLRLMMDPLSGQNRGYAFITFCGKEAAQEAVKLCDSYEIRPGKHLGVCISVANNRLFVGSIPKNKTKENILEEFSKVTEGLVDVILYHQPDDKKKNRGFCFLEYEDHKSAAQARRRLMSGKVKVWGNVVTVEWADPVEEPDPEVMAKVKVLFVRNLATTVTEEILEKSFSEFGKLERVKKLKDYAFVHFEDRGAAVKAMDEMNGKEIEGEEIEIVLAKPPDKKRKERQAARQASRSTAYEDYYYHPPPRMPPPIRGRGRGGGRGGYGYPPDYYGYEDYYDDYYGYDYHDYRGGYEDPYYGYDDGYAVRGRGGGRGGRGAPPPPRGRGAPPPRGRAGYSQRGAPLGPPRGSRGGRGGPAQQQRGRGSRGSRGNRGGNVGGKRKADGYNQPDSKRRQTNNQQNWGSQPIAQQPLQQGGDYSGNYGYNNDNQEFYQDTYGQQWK

Compound: Nc1ncnc2c1ncn2[C@@H]1O[C@H](COP(=O)(O)OP(=O)(O)OP(=O)(O)O)[C@@H](O)[C@H]1O [adenosine triphosphate]
Assay: NP40-soluble protein abundance relative to vehicle (solubility fold change) (ratio); higher = more soluble protein in presence of ATP
Details: concentration: 0.1mM
Method in brief: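 Each value is a fold change relative to the detergent-processed vehicle, calculated per replicate from vsn-normalised intensities. Jurkat crude lysate received eight concentrations (0.1 to 10 mM) for 10 min at room temperature and 3 min at 37 °C, then was solubilised in 0.8% NP40 with benzonase (60 min, 4 °C). The ultracentrifuged supernatant was TMT-labelled and run by LC-MS/MS in three independent experiments.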

Target	NP40-soluble protein abundance
NDUFS5 (UniProt O43920)	0.975 ± 0.06
UniProt O60341	1.01 ± 0.026
PSMD9 (UniProt O00233)	0.945 ± 0.011
UniProt O43318-2|O43318	1 ± 0.0066
UniProt O15040 and related entries	0.999 ± 0.064
ARID1A (UniProt O14497)	0.981 ± 0.048
TRAFD1 (UniProt O14545)	1.04 ± 0.069
UniProt O00182 and related entries	1.03 ± 0.046
SMARCA5 (UniProt O60264)	1.08 ± 0.024
UniProt O15260 and related entries	1.04 ± 0.083
UniProt O00743 and related entries	1.06 ± 0.12
AKAP10 (UniProt O43572)	1.06 ± 0.077
PHGDH (UniProt O43175)	0.962 ± 0.035
UniProt O43663 and related entries	1.028 ± 0.01
UniProt O43736 and related entries	0.954 ± 0.027
DCTN6 (UniProt O00399)	1 ± 0.041
FANCG (UniProt O15287)	1.13 ± 0.025
UniProt O43278 and related entries	0.987 ± 0.064
UniProt O60333-2|O60333-3	1.01 ± 0.052
STX6 (UniProt O43752)	0.991 ± 0.043
GAK (UniProt O14976)	0.979 ± 0.032
UniProt O14530 and related entries	0.952 ± 0.037
MRPS12 (UniProt O15235)	0.882 ± 0.099
AP3B1 (UniProt O00203)	0.97 ± 0.0099
M0R3A8 and related entries (UniProt Q9NWS0)	1 ± 0.04
UniProt O43390 and related entries	1.03 ± 0.046

Quoted from the listing:
NP40-soluble protein abundance with UniProt O00743 and related entries is entered as 1.06 ± 0.12
NP40-soluble protein abundance with UniProt O43318-2|O43318 is entered as 1 ± 0.0066
